Results as given in article PMC8060413.

Chains of the proteins cited; added tags and fusions are not shown. Lines headed by an entry give the natural chain unless they say otherwise; changes in a name come on top.
UniProt P32527: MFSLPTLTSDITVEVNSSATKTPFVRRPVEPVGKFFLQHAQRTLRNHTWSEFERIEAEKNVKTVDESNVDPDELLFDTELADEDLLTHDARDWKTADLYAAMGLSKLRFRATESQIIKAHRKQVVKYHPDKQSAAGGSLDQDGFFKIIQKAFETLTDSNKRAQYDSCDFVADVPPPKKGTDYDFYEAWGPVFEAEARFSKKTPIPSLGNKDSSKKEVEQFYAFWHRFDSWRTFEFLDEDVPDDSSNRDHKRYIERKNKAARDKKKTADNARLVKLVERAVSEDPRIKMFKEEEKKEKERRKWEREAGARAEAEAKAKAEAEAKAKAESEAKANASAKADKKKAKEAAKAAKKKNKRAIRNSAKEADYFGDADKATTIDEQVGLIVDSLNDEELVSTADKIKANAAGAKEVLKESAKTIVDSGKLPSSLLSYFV

Target: T1, Ssz1 C81S C86S (subunit of the cysteine RAC variants) (yeast) (UniProt P38788)
T1 sequence: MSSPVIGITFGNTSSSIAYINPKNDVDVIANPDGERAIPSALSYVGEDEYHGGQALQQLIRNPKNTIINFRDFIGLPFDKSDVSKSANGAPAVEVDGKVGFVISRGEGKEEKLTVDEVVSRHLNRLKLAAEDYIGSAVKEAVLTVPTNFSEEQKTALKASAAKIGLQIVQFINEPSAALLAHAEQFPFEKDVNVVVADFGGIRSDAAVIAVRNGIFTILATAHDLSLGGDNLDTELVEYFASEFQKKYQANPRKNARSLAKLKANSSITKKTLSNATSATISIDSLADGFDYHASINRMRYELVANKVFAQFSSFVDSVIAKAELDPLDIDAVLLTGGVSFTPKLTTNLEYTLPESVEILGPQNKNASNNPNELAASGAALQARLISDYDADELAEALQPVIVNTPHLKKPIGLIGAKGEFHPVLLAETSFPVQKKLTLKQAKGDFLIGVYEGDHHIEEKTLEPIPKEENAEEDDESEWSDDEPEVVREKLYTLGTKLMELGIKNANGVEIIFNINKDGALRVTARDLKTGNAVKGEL
Test: co-purification (Ni-IDA affinity, anion exchange, size exclusion); Ssz1 and Zuo1 co-expressed in E. coli; complex held on Ni-IDA by His6-SUMO on Ssz1, washed with 100 mM and 1 M KAc, eluted with 300 mM imidazole; His6-SUMO removed by Ulp1; then ResourceQ and HiLoad Superdex 200 in 40 mM HEPES pH 7.4, 100 mM KAc, 5 mM MgCl2, 5% glycerol

| Substance | binding |
| --- | --- |
| Zuo1 C167S K351C K355P R395P (from UniProt P32527) | binds |
| Zuo1 C167S K351C K355P R395P K363C (from UniProt P32527) | binds |
| Zuo1 C167S K355P R395P K363C (from UniProt P32527) | binds |

These are yes or no findings as the source states them, for the method shown. In cells and extracts the contact can be indirect. Binding can be weak; no strength is given.
